Some of the results follow.
Key:
Experiment in all cases: log2 fold change, soluble protein after heating vs DMSO (PISA); higher = thermal stabilisation; K562 cells, 10 uM, 30 min; active = over 0.2 and 3.5 SD of the protein, either way, in both replicates (recomputed)
[1] = compound: COC1=CC=C(C=C1)CN2C=CC3=C2C=C(C=C3)C(=O)NO
In short: (§1)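 Quantification of soluble protein used TMTpro 16plex LC-MS/MS, with channel sums equalised. Samples were the supernatant after 21,000xg for 90 min of pooled aliquots from K562 cells (2×10^6 cells/mL) treated with 10 μM compound for 30 min, heated for 3 min over 48°C-58°C, and extracted in PBS with 0.5% NP-40 at 4°C. Values, from duplicates, describe thermal stability against control samples on a log2 fold-change scale.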

Chains of the proteins cited; added tags and fusions are not shown. Lines headed by an entry give the natural chain unless they say otherwise; changes in a name come on top.
UniProt P19397: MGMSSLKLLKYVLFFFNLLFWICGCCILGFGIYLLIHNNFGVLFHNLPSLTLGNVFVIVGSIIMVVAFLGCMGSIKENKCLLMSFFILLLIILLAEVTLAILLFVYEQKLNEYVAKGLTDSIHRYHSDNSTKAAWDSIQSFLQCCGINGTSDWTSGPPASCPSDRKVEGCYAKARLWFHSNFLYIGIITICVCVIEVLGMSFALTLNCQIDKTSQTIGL
UniProt Q6P1N0: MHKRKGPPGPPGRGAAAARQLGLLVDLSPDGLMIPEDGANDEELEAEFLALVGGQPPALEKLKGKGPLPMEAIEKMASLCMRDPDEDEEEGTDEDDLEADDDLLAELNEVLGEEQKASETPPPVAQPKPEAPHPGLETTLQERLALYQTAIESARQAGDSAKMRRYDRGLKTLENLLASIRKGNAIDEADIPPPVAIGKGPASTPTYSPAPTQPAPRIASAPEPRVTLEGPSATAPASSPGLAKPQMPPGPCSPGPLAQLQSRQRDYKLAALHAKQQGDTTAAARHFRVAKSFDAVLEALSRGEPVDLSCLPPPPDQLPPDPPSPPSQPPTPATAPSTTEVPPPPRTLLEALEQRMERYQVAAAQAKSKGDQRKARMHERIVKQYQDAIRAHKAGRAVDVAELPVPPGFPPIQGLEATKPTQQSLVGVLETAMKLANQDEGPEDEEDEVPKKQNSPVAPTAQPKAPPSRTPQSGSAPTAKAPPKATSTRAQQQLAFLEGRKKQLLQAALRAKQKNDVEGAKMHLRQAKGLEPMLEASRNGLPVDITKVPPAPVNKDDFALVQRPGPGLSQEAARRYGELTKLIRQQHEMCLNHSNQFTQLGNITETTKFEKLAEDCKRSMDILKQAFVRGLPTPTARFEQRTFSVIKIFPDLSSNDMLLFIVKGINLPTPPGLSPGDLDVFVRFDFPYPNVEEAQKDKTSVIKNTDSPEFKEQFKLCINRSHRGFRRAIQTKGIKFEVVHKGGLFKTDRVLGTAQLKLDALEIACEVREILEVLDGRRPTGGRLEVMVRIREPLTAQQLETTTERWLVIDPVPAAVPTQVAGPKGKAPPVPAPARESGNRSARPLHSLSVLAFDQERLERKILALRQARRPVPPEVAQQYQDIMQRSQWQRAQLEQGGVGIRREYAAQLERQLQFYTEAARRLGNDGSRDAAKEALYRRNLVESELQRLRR
UniProt Q4VC31: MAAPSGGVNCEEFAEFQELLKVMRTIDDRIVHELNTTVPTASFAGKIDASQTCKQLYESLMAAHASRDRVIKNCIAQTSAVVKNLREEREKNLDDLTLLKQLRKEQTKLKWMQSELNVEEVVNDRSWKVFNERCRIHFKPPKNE
UniProt P16152: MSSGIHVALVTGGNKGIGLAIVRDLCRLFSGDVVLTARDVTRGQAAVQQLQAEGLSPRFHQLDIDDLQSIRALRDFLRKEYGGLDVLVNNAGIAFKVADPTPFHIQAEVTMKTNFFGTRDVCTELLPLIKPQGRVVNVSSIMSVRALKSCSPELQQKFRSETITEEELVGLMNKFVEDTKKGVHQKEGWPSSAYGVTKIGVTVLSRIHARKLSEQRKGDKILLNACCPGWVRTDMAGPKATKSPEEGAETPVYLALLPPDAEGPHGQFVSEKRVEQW
UniProt Q8N4J0: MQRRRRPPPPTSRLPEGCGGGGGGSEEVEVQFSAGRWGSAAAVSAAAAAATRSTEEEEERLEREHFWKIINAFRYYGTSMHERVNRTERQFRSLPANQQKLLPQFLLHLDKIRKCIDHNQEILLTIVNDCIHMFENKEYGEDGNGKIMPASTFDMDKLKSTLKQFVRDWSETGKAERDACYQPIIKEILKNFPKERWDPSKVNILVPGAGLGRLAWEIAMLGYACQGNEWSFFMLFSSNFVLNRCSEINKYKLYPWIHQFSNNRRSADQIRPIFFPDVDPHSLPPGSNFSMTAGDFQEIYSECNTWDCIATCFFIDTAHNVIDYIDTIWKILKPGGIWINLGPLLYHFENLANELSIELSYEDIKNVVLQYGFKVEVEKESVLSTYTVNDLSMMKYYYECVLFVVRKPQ
UniProt O60826, whole entry, looked up: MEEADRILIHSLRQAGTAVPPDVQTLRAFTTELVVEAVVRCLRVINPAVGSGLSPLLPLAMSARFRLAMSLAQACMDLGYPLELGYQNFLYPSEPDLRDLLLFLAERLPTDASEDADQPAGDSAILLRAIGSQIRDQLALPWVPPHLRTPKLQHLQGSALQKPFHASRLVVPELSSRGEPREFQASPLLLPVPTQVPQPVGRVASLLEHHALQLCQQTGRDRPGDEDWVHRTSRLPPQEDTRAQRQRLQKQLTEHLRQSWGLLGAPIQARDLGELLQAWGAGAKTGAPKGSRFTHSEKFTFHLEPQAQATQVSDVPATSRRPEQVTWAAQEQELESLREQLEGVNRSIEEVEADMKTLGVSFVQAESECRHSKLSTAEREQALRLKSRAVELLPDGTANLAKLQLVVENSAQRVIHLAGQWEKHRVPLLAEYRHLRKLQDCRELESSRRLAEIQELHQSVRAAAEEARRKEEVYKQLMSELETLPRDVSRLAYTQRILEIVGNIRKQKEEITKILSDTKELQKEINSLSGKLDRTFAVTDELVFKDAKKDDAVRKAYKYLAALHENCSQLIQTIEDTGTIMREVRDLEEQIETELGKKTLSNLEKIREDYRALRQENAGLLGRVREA
UniProt Q16204: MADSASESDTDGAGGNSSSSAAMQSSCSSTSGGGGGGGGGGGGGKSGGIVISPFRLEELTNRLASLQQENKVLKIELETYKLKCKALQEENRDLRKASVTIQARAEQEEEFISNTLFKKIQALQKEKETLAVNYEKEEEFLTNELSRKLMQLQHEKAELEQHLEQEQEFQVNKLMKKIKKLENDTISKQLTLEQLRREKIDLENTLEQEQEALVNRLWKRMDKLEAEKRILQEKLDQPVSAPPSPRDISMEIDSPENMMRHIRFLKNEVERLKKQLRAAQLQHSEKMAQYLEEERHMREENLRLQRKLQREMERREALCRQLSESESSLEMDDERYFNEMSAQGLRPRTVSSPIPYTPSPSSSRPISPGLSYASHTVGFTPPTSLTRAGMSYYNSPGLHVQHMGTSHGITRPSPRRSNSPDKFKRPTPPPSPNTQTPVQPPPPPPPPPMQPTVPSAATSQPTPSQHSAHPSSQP
UniProt Q9H6F5: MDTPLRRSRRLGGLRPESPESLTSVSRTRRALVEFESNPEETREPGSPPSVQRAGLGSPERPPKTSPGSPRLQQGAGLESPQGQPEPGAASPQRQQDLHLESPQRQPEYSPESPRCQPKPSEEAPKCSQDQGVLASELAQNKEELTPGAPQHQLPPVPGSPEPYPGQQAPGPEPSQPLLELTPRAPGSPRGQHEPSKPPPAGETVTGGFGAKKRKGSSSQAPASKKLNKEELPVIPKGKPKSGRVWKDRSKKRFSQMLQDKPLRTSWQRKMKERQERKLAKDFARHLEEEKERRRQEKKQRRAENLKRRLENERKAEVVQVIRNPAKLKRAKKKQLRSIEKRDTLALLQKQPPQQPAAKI
UniProt Q6P4E1: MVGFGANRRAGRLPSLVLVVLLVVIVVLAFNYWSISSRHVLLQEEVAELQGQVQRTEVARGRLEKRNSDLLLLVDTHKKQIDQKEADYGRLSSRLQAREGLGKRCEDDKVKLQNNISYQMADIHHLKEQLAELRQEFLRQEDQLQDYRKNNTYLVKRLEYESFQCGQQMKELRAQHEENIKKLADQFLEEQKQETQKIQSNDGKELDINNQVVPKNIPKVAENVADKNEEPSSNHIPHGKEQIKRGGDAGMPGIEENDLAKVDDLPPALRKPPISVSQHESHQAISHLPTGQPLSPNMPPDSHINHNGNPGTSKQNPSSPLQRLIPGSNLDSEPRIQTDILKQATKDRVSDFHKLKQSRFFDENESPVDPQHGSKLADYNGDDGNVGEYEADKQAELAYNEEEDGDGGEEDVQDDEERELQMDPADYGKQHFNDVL
UniProt P35520: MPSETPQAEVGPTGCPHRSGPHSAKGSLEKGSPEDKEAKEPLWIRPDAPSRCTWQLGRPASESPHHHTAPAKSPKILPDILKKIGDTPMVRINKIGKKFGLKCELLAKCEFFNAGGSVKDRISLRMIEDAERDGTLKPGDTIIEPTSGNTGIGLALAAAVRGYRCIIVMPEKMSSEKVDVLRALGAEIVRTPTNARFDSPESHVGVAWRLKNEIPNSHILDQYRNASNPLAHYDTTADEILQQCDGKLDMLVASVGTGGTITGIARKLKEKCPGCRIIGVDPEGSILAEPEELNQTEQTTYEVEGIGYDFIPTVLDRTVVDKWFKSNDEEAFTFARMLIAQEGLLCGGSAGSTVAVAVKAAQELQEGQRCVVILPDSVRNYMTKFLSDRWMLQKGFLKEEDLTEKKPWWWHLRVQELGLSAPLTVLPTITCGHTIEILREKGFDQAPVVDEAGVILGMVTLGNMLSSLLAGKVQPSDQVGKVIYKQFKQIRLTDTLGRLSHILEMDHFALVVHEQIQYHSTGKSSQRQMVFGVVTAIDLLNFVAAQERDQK
UniProt Q86WR0: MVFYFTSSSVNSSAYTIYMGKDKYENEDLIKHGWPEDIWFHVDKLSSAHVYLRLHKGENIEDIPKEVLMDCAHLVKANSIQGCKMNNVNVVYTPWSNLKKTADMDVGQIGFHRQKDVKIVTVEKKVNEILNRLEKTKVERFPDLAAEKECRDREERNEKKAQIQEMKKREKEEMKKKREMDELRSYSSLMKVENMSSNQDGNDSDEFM
UniProt Q8IWD4: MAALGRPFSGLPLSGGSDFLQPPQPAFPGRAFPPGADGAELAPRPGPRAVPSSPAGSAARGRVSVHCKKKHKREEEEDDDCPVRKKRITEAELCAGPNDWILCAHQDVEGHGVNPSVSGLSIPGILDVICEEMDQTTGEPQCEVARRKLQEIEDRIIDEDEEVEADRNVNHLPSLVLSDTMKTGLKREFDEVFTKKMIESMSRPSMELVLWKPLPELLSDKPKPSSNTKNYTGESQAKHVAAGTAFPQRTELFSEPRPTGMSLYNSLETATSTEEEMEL
UniProt P83916, whole entry, looked up: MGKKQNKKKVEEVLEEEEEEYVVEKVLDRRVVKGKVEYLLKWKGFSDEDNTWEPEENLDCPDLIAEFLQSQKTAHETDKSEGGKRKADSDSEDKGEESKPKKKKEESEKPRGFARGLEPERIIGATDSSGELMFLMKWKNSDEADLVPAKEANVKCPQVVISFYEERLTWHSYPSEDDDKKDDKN
UniProt P19256, whole entry, looked up: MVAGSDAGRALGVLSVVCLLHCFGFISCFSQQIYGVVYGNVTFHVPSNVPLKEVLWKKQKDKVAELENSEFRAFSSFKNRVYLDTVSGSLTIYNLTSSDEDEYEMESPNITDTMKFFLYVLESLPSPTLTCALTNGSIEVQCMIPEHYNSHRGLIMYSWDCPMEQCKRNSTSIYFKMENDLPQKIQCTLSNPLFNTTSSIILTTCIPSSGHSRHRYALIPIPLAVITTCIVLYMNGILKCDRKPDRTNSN
UniProt Q96CT7: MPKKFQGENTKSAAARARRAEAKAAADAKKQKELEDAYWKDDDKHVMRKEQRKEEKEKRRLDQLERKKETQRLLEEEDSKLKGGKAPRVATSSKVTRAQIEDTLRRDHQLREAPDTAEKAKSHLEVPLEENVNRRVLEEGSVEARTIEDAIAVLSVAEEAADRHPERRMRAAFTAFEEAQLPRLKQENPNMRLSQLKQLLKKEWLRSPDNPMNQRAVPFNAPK
UniProt Q5T0F9: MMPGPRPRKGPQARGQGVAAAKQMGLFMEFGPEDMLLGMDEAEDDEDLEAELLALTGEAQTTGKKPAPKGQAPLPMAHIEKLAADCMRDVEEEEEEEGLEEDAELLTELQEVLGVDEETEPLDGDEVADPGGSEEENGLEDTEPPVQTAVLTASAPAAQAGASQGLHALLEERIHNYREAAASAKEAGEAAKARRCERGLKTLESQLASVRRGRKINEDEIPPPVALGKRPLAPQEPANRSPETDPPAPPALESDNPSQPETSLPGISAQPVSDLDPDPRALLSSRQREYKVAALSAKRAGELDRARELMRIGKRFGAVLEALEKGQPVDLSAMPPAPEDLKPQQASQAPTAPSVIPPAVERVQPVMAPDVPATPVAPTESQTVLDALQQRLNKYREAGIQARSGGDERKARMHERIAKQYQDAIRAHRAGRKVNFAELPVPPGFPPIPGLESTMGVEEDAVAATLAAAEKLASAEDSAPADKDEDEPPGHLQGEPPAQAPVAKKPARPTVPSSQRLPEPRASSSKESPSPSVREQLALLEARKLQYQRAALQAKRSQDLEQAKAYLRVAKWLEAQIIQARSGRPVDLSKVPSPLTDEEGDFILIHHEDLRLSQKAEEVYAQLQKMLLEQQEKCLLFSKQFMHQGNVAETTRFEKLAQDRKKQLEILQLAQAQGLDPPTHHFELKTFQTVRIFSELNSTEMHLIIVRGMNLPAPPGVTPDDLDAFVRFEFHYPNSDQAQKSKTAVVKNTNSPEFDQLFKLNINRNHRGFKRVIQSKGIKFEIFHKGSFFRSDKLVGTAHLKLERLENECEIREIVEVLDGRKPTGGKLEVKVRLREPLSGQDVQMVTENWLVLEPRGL

filanesib = compound: CON(C)C(=O)N1N=C(c2cc(F)ccc2F)S[C@@]1(CCCN)c1ccccc1 [filanesib]
In short: as §1

zotarolimus = compound: CO[C@H]1C[C@@H]2CC[C@@H](C)[C@@](O)(O2)C(=O)C(=O)N2CCCC[C@H]2C(=O)O[C@H]([C@H](C)C[C@@H]2CC[C@H](n3cnnn3)[C@H](OC)C2)CC(=O)[C@H](C)/C=C(\C)[C@@H](O)[C@@H](OC)C(=O)[C@H](C)C[C@H](C)/C=C/C=C/C=C/1C [zotarolimus]
In short: as §1

idasanutlin = compound: COc1cc(C(=O)O)ccc1NC(=O)[C@@H]1N[C@@H](CC(C)(C)C)[C@](C#N)(c2ccc(Cl)cc2F)[C@H]1c1cccc(Cl)c1F [idasanutlin]
In short: as §1

alisertib = compound: COc1cc(Nc2ncc3c(n2)-c2ccc(Cl)cc2C(c2c(F)cccc2OC)=NC3)ccc1C(=O)O [alisertib]
In short: as §1

[2] = compound: COc1cc2nc(-c3cc(F)ccc3O)nc(N[C@@H]3CNC[C@H]3C(C)(C)O)c2cc1OC
In short: as §1

gefitinib = compound: COc1cc2ncnc(Nc3ccc(F)c(Cl)c3)c2cc1OCCCN1CCOCC1 [gefitinib]
In short: as §1

[3] = compound: COc1cccc2cc(-c3nc([C@H]4CC[C@H](C(=O)O)CC4)n4ncnc(N)c34)[nH]c12
In short: as §1

lapatinib = compound: CS(=O)(=O)CCNCc1ccc(-c2ccc3ncnc(Nc4ccc(OCc5cccc(F)c5)c(Cl)c4)c3c2)o1 [lapatinib]
In short: as §1

pictilisib = compound: CS(=O)(=O)N1CCN(Cc2cc3nc(-c4cccc5[nH]ncc45)nc(N4CCOCC4)c3s2)CC1 [pictilisib]
In short: as §1

Measured: log2 fold change

CD53 (UniProt P19397)
inactive: [1] -0.1 | filanesib 0.025 | zotarolimus -0.022 | idasanutlin 0.084 | alisertib -0.04 | [2] 0.154 | gefitinib 0.053 | [3] 0.102 | lapatinib -0.208 | pictilisib 0.276

CCDC93 (UniProt Q567U6)
inactive: [1] 0.039 | filanesib 0.075 | zotarolimus 0.017 | idasanutlin -0.033 | alisertib -0.02 | [2] 0.156 | gefitinib 0.021 | [3] -0.113 | lapatinib -0.03 | pictilisib -0.005

CC2D1A (UniProt Q6P1N0)
inactive: [1] 0.012 | filanesib 0.053 | zotarolimus -0.011 | idasanutlin -0.026 | alisertib 1.24 | [2] 0.035 | gefitinib -0.049 | [3] -0.015 | lapatinib -0.006 | pictilisib -0.067

CCDC58 (UniProt Q4VC31)
inactive: [1] -0.043 | filanesib 0.011 | zotarolimus -0.02 | idasanutlin -0.003 | alisertib -0.07 | [2] 0.005 | gefitinib -0.013 | [3] 0.054 | lapatinib -0.007 | pictilisib 0.068

CDADC1 (UniProt Q9BWV3)
inactive: [1] 0.149

CBR1 (UniProt P16152)
inactive: [1] 0 | filanesib -0.024 | zotarolimus 0.071 | idasanutlin -0.074 | alisertib -0.036 | [2] 0.001 | gefitinib -0.004 | [3] 0.028 | lapatinib 0.037 | pictilisib -0.035

CCT5 (UniProt P48643)
inactive: [1] 0.073 | filanesib -0.04 | zotarolimus 0.025 | idasanutlin -0.031 | alisertib -0.058 | [2] -0.026 | gefitinib -0.005 | [3] 0.003 | lapatinib 0.013 | pictilisib -0.079

CCDC12 (UniProt Q8WUD4)
inactive: [1] -0.012 | filanesib -0.008 | zotarolimus -0.031 | idasanutlin 0.074 | alisertib -0.063 | [2] -0.023 | gefitinib -0.037 | [3] 0.075 | lapatinib 0.003 | pictilisib 0.035

CARNMT1 (UniProt Q8N4J0)
inactive: [1] -0.174 | filanesib -0.109 | zotarolimus 0.025 | idasanutlin -0.099 | alisertib 0.003 | [2] 0.092 | gefitinib 0.011 | [3] -0.002 | lapatinib 0.027 | pictilisib 0.051

CCDC22 (UniProt O60826)
inactive: [1] 0.021 | filanesib 0.004 | zotarolimus 0.091 | idasanutlin -0.006 | alisertib -0.014 | [2] 0.01 | gefitinib -0.011 | [3] -0.029 | lapatinib 0.092 | pictilisib -0.171

CCDC6 (UniProt Q16204)
inactive: [1] -0.017 | filanesib 0.012 | zotarolimus 0.011 | idasanutlin 0.002 | alisertib -0.048 | [2] 0.044 | gefitinib 0.007 | [3] 0.03 | lapatinib -0.026 | pictilisib 0.066

CCDC86 (UniProt Q9H6F5)
inactive: [1] -0.127 | filanesib 0.335 | zotarolimus 0.004 | idasanutlin 0.085 | alisertib -0.1 | [2] 0.024 | gefitinib 0.007 | [3] -0.15 | lapatinib 0.137 | pictilisib -0.023

CCT8 (UniProt P50990)
inactive: [1] 0.048 | filanesib -0.042 | zotarolimus 0.004 | idasanutlin -0.01 | alisertib -0.058 | [2] 0.009 | gefitinib -0.021 | [3] 0.028 | lapatinib -0.004 | pictilisib -0.01

CASP2 (UniProt P42575)
inactive: [1] 0.122 | filanesib -0.02 | zotarolimus 0.047 | idasanutlin -0.067 | alisertib -0.019 | [2] -0.245 | gefitinib -0.082 | [3] 0.072 | pictilisib 0.069
active: lapatinib -0.323

CASC4 (UniProt Q6P4E1)
inactive: [1] -0.045 | filanesib -0.012 | zotarolimus 0.047 | idasanutlin -0.103 | alisertib 0.029 | [2] 0.097 | gefitinib 0.066 | [3] 0.1 | lapatinib -0.036 | pictilisib 0.066

CBFB isoform 2 (UniProt Q13951)
inactive: [1] -0.036 | filanesib -0.056 | zotarolimus 0.084 | idasanutlin -0.044 | alisertib -0.075 | [2] 0.094 | gefitinib 0.019 | [3] 0.004 | lapatinib -0.043 | pictilisib -0.141

CAVIN2 (UniProt O95810)
inactive: [1] -0.003 | filanesib 0.063 | zotarolimus -0.015 | idasanutlin 0.109 | alisertib -0.035 | [2] -0.153 | gefitinib -0.072 | [3] -0.059 | lapatinib 0.073 | pictilisib -0.16

CBS (UniProt P35520)
active: [1] -0.225
inactive: filanesib -0.05 | zotarolimus 0.044 | idasanutlin 0.014 | alisertib -0.073 | [2] 0.024 | gefitinib 0.007 | [3] 0.011 | lapatinib -0.026 | pictilisib 0.043

CCDC25 (UniProt Q86WR0)
inactive: [1] 0.105 | filanesib -0.028 | zotarolimus 0.002 | idasanutlin -0.043 | alisertib -0.043 | [2] 0.04 | gefitinib -0.003 | [3] 0.068 | lapatinib -0.033 | pictilisib -0.004

CCDC117 (UniProt Q8IWD4)
inactive: [1] -0.062 | filanesib 0.061 | zotarolimus -0.059 | idasanutlin 0.035 | alisertib -0.037 | [2] -0.012 | gefitinib 0.063 | [3] -0.07 | lapatinib -0.068 | pictilisib -0.019

CCNK isoform 4 (UniProt O75909)
inactive: [1] -0.067 | filanesib 0.177 | zotarolimus 0.163 | idasanutlin 0.061 | alisertib -0.013 | [2] -0.021 | gefitinib -0.014 | [3] 0.024 | lapatinib 0.066 | pictilisib -0.033

CBX1 (UniProt P83916)
active: [1] 0.41
inactive: filanesib -0.016 | zotarolimus 0.008 | idasanutlin 0.038 | alisertib -0.059 | [2] -0.086 | gefitinib 0.021 | [3] 0.003 | lapatinib 0.037 | pictilisib -0.046

CD320 (UniProt Q9NPF0)
inactive: [1] 0.001 | filanesib -0.043 | zotarolimus 0.024 | idasanutlin 0.03 | alisertib -0.04 | [2] -0.013 | gefitinib -0.002 | [3] 0.017 | lapatinib 0.025 | pictilisib -0.006

CD58 (UniProt P19256)
inactive: [1] -0.067 | filanesib 0.101 | zotarolimus 0.009 | idasanutlin 0.014 | alisertib -0.053 | [2] 0.087 | gefitinib 0.077 | [3] 0.072 | lapatinib -0.025 | pictilisib 0

CCDC115 (UniProt Q96NT0)
inactive: [1] 0.05 | filanesib 0.005 | zotarolimus -0.009 | idasanutlin -0.007 | alisertib -0.094 | [2] -0.021 | gefitinib 0.043 | [3] -0.001 | lapatinib 0.003 | pictilisib 0.09

CDC40 (UniProt O60508)
inactive: [1] -0.253 | filanesib 0.471 | zotarolimus -0.071 | idasanutlin 0.295 | alisertib -0.045 | [2] -0.224 | gefitinib -0.108 | [3] -0.207 | lapatinib 0.12 | pictilisib 0.03

CD151 (UniProt P48509)
inactive: [1] -0.045 | filanesib 0.108 | zotarolimus -0.048 | idasanutlin -0.12 | alisertib 0.075 | [2] 0.111 | gefitinib 0.001 | [3] -0.024 | lapatinib 0.012 | pictilisib 0.116

CDC23 (UniProt Q9UJX2)
inactive: [1] -0.021 | filanesib 0.072 | zotarolimus 0.074 | idasanutlin 0.029 | alisertib -0.069 | [2] 0.013 | gefitinib 0.011 | [3] -0.02 | lapatinib 0.018 | pictilisib 0

Taken from the results shown (2 entries):
CDC40 (UniProt O60508)
inactive: [1] -0.253 | filanesib 0.471 | zotarolimus -0.071 | idasanutlin 0.295 | alisertib -0.045 | [2] -0.224 | gefitinib -0.108 | [3] -0.207 | lapatinib 0.12 | pictilisib 0.03

CD151 (UniProt P48509)
inactive: [1] -0.045 | filanesib 0.108 | zotarolimus -0.048 | idasanutlin -0.12 | alisertib 0.075 | [2] 0.111 | gefitinib 0.001 | [3] -0.024 | lapatinib 0.012 | pictilisib 0.116

Continued.

CCDC124 (UniProt Q96CT7)
inactive: [1] -0.078 | filanesib 0.114 | zotarolimus -0.029 | idasanutlin 0.05 | alisertib -0.046 | [2] 0.002 | gefitinib 0.006 | [3] 0.005 | lapatinib -0.023 | pictilisib -0.007

CC2D1B isoform 2 (UniProt Q5T0F9)
inactive: [1] 0.016 | filanesib 0.027 | zotarolimus 0.001 | idasanutlin -0.036 | alisertib 0.031 | [2] 0.074 | gefitinib -0.01 | [3] 0.024 | lapatinib -0.007 | pictilisib 0.059

Reference: the supplement of paper PMC10849652
